Test results as given in patent publication US20090011988A1 (Genentech, published 2009).
Results are given in words; binding and its absence hold for the method and conditions named. Values belong to the binder of their own block, whether it stands above or below them.

What was measured:
human IGFBP-1 [1] = target: T1, human IGFBP-1 (human, UniProt P08833 26-259); test: ELISA
T1 sequence (looked up): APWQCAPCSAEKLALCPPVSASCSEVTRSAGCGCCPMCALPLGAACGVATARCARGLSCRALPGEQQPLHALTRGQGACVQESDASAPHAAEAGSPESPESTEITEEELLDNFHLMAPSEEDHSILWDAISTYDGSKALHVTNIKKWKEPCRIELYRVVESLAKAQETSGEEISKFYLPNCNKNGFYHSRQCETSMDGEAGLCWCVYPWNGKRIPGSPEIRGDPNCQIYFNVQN

human IGFBP-1 [2] = target: T1, human IGFBP-1; test: condition: >200-fold potency reduction against BP1-01; BIAcore inhibition assay

B1: BP1-04 (peptide)
peptide: CRAGPLQWLCE
modifications: disulfide between the two Cys
binding (human IGFBP-1 [1]): no binding (tested: >1000-fold the IC50 of BP1-01)

binding (human IGFBP-1 [2]): no binding
B2: (i+8)A (peptide)
peptide: LEWLAEKYFE
modifications: N-terminal acetyl; first and last Glu joined as amides with 1,5-diaminopentane
